Here are results for 2 substances from article PMC10433351.

No constants are given. Whether binding was seen depends on the method and setting.

The target in assay [1] is hydrogenated full-length N-acetylglucosamine-binding protein A (H-GbpA-FL) (Vibrio cholerae) (UniProt Q9KLD5). As to the kind of experiment: SAXS; 40.0 uM H-GbpA-FL or 32.0 uM D-GbpA-FL in 100 mM NaCl, 20 mM Tris-HCl pH 8.0; Bruker NanoStar, 24 °C; oligomeric state in solution; both purified.
The target in assay [2] is perdeuterated full-length N-acetylglucosamine-binding protein A (D-GbpA-FL) (Vibrio cholerae) (UniProt Q9KLD5). Described as above.

For “hydrogenated full-length N-acetylglucosamine-binding protein A (H-GbpA-FL) (from UniProt Q9KLD5 24-485) (enzyme)”, the binding result in assay [1] is “no binding (tested: 40.0 uM)”.
As for “perdeuterated full-length N-acetylglucosamine-binding protein A (D-GbpA-FL) (from UniProt Q9KLD5 24-485) (enzyme)”, the binding entry in assay [2] is “no binding (tested: 32.0 uM)”.
